# Results deposited as PubChem BioAssay AID1259331 (Drosophila RNAi Screening Center, 2017)
# Assay: 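Knock-downs that alter ATP level after a high zinc chloride dose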 (primary screen)
# Cells: Drosophila S2R+ cells
# Reagent: long dsRNA against Drosophila genes
# Timing: 5 days (4 days knock-down, then 1 day zinc)
# Conditions: zinc chloride at 15 mM final level for 1 day
# Detection: 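Total cellular ATP measured by luciferase luminescence as a viability proxy, turned into Z scores from three plate copies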
# Direction: mean Z score: higher = more ATP than other wells, better survival under zinc; ATP luminescence: higher = more ATP, more viable cells
# Hit rule: 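a reagent is called a hit when its Z score is above 1.5 or below -1.5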
# Calls: active = hit, ATP up or down; inactive = not a hit
# In all, the deposit lists about 3,100 reagents; below is a part drawn at random. 126 of all reagents (4.1%) were called active. 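Calls are per reagent; zinc was so toxic that few knock-downs lowered ATP further, so most hits raise ATP.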 The raw values are shown without normalisation. A number with no mark means an inactive call. Names joined by + are all predicted targets of the reagent. Reagent sequences are not shown. The record does not give: the amount of reagent.
The opening 7 records as a preview:
predicted target,DRSC id,mean Z score,"ATP luminescence, replicate 1","ATP luminescence, replicate 2"
SLC22A,DRSC11826,-0.495,67234,51250
SLC22A,DRSC11827,-0.27,69670,53653
Gr22a,DRSC26809,0.168,63204,61284
List,DRSC06520,1.07,85261,88479
List,DRSC39801,-0.0599,57313,53310
nac,DRSC16520,-0.391,38050,53519
Shawl,DRSC02209,1.66 (active),77148,62930

The list itself, from the start:
predicted target,DRSC id,mean Z score,"ATP luminescence, replicate 1","ATP luminescence, replicate 2"
SLC22A,DRSC11826,-0.495,67234,51250
SLC22A,DRSC11827,-0.27,69670,53653
Gr22a,DRSC26809,0.168,63204,61284
List,DRSC06520,1.07,85261,88479
List,DRSC39801,-0.0599,57313,53310
nac,DRSC16520,-0.391,38050,53519
Shawl,DRSC02209,1.66 (active),77148,62930
Shawl,DRSC02748,0.409,83299,69052
Shawl,DRSC24307,-0.615,54630,49155
CG33281,DRSC00421,-0.417,39850,40468
CG13796,DRSC24686,-0.296,58094,51164
Abca3,DRSC20546,-0.287,37673,41291
m,DRSC20181,0.64,80235,72997
m,DRSC29636,-0.212,57357,58900
Ktl,DRSC14270,-0.149,44427,46211
ninaD,DRSC02886,0.442,56724,38890
ninaD,DRSC24484,-0.129,53927,53533
ine,DRSC00822,-0.166,51304,56602
ine,DRSC28874,-0.187,55719,61352
CG6484,DRSC06991,-0.0627,30233,32684
CG6484,DRSC28087,-0.654,53900,45783
mAChR-B,DRSC16345,-0.921,30405,39422
mAChR-B,DRSC26738,-0.621,37450,55529
Gr2a,DRSC18603,-0.625,54253,57151
Gr2a,DRSC39727,-0.391,50172,56412
Or45b,DRSC07488,-0.152,79000,66188
Or45b,DRSC39528,0.129,65056,36267
Agpat2,DRSC03532,-0.538,44634,52864
Agpat2,DRSC27901,-0.238,53070,60409
CG40006,DRSC03787,-0.394,36233,38187
CG40006,DRSC03814,-0.375,36599,40444
CG43155,DRSC19777,0.269,70616,70408
Hmt-1,DRSC15555,-0.332,44291,41136
Hmt-1,DRSC39577,-0.113,60569,57659
Zip71B,DRSC09686,-0.642,68709,48922
Zip71B,DRSC29491,0.161,62038,65760
SppL,DRSC15228,0.00892,30833,56499
Gr39a,DRSC01841,-0.897,31330,34279
Gr39a,DRSC01842,-0.229,38393,41925
Gr39a,DRSC27181,-0.195,59980,51338
CG5326,DRSC13568,0.689,37999,67715
CG5326,DRSC23719,1.56 (active),72517,79463
CG6052,DRSC10574,-0.0483,78246,59054
mGluR,DRSC17215,-0.712,57014,51407
mGluR,DRSC39626,-0.481,57974,51561
tomboy20,DRSC14913,-0.0143,36062,55556
Or22a,DRSC26009,0.357,61215,61078
rk,DRSC03602,0.351,55076,40468
Ykt6,DRSC26017,0.599,62604,66994
Gr64b + Gr64c,DRSC08444,-0.267,66154,57923
Gr64b + Gr64c,DRSC08445,0.119,78537,65298
Gr64b + Gr64c,DRSC27568,0.097,61938,59483
ste24a,DRSC07314,-0.0376,30642,31716
ste24a,DRSC26491,-0.451,61249,56225
CG31183,DRSC14403,0.493,45920,67303
CG31183,DRSC15554,-0.471,39593,40348
Sur-8,DRSC15794,0.69,42371,71042
CG1998,DRSC19829,0.154,64268,73035
CG1998,DRSC39895,-0.119,59517,55916
CG43795,DRSC04192,-0.434,45903,36199
CG43795,DRSC04310,-1.13,35102,40913
CG43795,DRSC26752,0.132,73319,52281
CG17751,DRSC22837,-0.73,37382,38019
CG17751,DRSC24497,-0.729,50429,49880
KCNQ,DRSC06230,-0.372,80818,66171
KCNQ,DRSC25242,2.29 (active),92929,85484
CG3638,DRSC18533,1.15,87182,83168
CG3638,DRSC25349,-0.178,66805,50350
PIG-M + CG42380 + CG42379 + 1 more,DRSC03884,-0.313,35293,40896
PIG-M + CG42380 + CG42379 + 1 more,DRSC04580,-0.654,25828,27353
Tsp5D,DRSC18380,-0.82,51749,53173
Tsp5D,DRSC39908,-0.309,56379,54287
Oct-TyrR,DRSC11883,2.68 (active),1.26e5,1.02e5
Oct-TyrR,DRSC39865,-0.119,58574,58145
ZnT63C,DRSC08032,0.463,50549,43862
ZnT63C,DRSC08033,-0.0601,39647,44188
ZnT63C,DRSC23528,-0.303,49555,64027
osy,DRSC14903,0.44,74306,72362
osy,DRSC15979,0.0905,39542,44445
osy,DRSC15981,-0.2,39662,46931
Rh3,DRSC16822,-0.321,40056,41483
CG17036,DRSC02564,0.527,57614,43091
CG17036,DRSC28145,-0.21,56945,54664
Cad89D,DRSC15022,-0.435,33164,51822
Cad89D,DRSC39775,-0.477,51698,47120
CG15706,DRSC06577,-0.341,69975,70870
CG15706,DRSC39576,-0.48,47686,53910
